Source: PubChem BioAssay AID602313 (National Center for Advancing Translational Sciences (NCATS), 2012)
Hit rate of the full screen: of about 390,000 compounds, about 760 (0.19%) were called active. The inconclusive results got no clear call from the source; some entries with a clear call stand among them for comparison. Calls follow the shape of the dose curve; as a rule, active = well fitted inhibition curve with a large enough effect; inconclusive = small, poorly fitted or top-dose-only effect; inactive = flat fitted curve, though single readings scatter. Potencies beside an inconclusive call are fits to weak or partial responses and may not hold up.

Test: qHTS for Inhibitors of Vif-A3F Interactions: qHTS; also: nearly all actives have a fitted effect of over 65% in size
Conditions: HeLa A3F-eYFP + Vif (tagged APOBEC3F with the HIV-1 protein that degrades it), YFP fluorescence increase; series mostly up to 46.1 µM
Method in brief: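 HeLa cells stably expressing Vif plus C-terminally eYFP-tagged A3F were seeded, incubated overnight at 37 deg C, dosed with compound, incubated overnight again at 37 deg C. Yellow fluorescence (Ex 488/Em 500-530) reported blocked Vif-mediated A3F-eYFP degradation.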
Potency is read from the fitted curve at half-maximal effect.

SMILES	Potency
Cc1ccsc1/C=N/Nc1nc2ccccc2[nH]1	inconclusive: 22.4 µM [inhibitor, single point]
Cc1cccc(C2C=C(c3ccc(F)cc3)Nc3nc4ccccc4n32)c1 (stereo not given)	inconclusive: 17.8 µM [inhibitor, partial curve, poor fit]
CCC1CCCCN1C(=S)NC(=O)c1ccco1 (stereo not given)	inconclusive: 15.8 µM [inhibitor, single point]
COc1ccc(NC(=O)c2sc3nc(-c4cc5cccc(OC)c5oc4=O)[nH]c(=O)c3c2C)cc1	inactive
COc1ccc(S(=O)(=O)N(C)C[C@@H]2Oc3c(NS(C)(=O)=O)cccc3C(=O)N([C@@H](C)CO)C[C@H]2C)cc1	inactive
O=C1NC(=S)NC1=Cc1ccccc1O	inconclusive: 22.4 µM [inhibitor, single point]
Cc1occc1-c1nnc(SCC(=O)Nc2ccccc2)n1Cc1ccccc1	inactive
CCOC(=O)N1CCC(=NNc2nc3ccccc3s2)CC1	inactive
CC(Sc1nc(N(C)C)nc(N2CCOCC2)n1)C(=O)Nc1ccccc1 (stereo not given)	inconclusive: 15.8 µM [inhibitor, partial curve, poor fit]
CC(C)CN1CCN(Cc2ccc(CN3CCCCC3)s2)CC1CCO (stereo not given)	inconclusive: 2 µM [inhibitor, partial curve, poor fit]
CCN(Cc1ccccc1)S(=O)(=O)c1cc(C(=O)NCCCN(C)C)ccc1OC	inconclusive: 3.55 µM [inhibitor, single point]
Cc1nc2sc(C(=O)Nc3ccccc3)c(N)c2c(C)c1[N+](=O)[O-]	inconclusive: 10 µM [inhibitor, partial curve, poor fit]
COc1ccc(CN(C(=O)Cc2c[nH]c3ccccc23)C(C(=O)NC2CCCCC2)c2ccc(C)o2)cc1 (stereo not given)	inactive
C=C(C)c1cccc(C(C)(C)NC(=O)Nc2ccc(OC)nc2)c1	inconclusive: 35.5 µM [inhibitor, single point]
Cc1noc(-c2ccc(C(F)(F)F)cc2)c1NC(=O)Nc1ccc(Cl)cc1	inconclusive: 35.5 µM [inhibitor, single point]
COc1ccc(-c2cc3c(nn2)-c2ccccc2C3=O)cc1	inactive
CCn1cc(/C=N/NC(=O)c2ccc3c(c2)OCO3)cn1	inconclusive: 0.316 µM [inhibitor, full curve, poor fit]
CC(=O)Nc1ccc(SCC(=O)OCC(=O)NC(=O)NC2CCCC2)cc1	inconclusive: 6.31 µM [inhibitor, single point]
Brc1ccccc1-c1nnc2sc(Cc3ccccc3)nn12	inactive
CCOC(=O)c1c(NC(=O)C(C)Sc2c[nH]c3ccccc23)sc2c1CCC2 (stereo not given)	inconclusive: 35.5 µM [inhibitor, single point]
CC1=NN(c2nc3ccccc3[nH]2)C(=O)C1Cc1ccccc1 (stereo not given)	inconclusive: 35.5 µM [inhibitor, single point]
CC(C)c1nnc(NC(=O)c2nc(S(=O)(=O)Cc3ccccc3F)ncc2Cl)s1	inactive
O=C(Nc1ccc(NC(=O)c2cccs2)cc1)c1ccc2c(c1)OCO2	inconclusive: 5.62 µM [inhibitor, full curve]
Cc1cccc2c3c([nH]c12)C(=O)CC(C)(C)S3	inconclusive: 1.26 µM [inhibitor, partial curve, poor fit]

SMILES	Potency
O=C(NCc1ccncc1)C(=O)N/N=C/c1cccnc1	inconclusive: 35.5 µM [inhibitor, single point]
COc1ccc(C(=O)/C=C/c2ccc(OCc3ccccc3)cc2)cc1CSCC(=O)O	inactive
Cn1ccnc1C(=O)c1ccc(Cl)c(S(=O)(=O)N2CCOCC2)c1	inconclusive: 35.5 µM [inhibitor, single point]
COc1ccc(-c2nc(SCC(=O)Nc3c(F)cccc3F)n[nH]2)cc1	inactive
O=C(CN1CCCCCCC1)N/N=C/c1ccccc1F	inconclusive: 35.5 µM [inhibitor, partial curve, poor fit]
O=C(NNc1ccc([N+](=O)[O-])cc1)c1ccccc1Cl	inactive
CCC(C)Nc1nc(-c2cccc(OC)c2O)nc2ccccc12 (stereo not given)	inactive
O=C(NNS(=O)(=O)c1ccc([N+](=O)[O-])cc1)c1ccc([N+](=O)[O-])cc1	inconclusive: 15.8 µM [inhibitor, single point]
Cc1nnc2ccc(-c3cccc(NS(=O)(=O)c4ccccc4Cl)c3)nn12	inconclusive: 11.2 µM [inhibitor, partial curve, poor fit]
Cc1cc(C)c2c(N)c(C(=O)Nc3cccc(C)c3C)sc2n1	inconclusive: 6.31 µM [inhibitor, single point]
CCn1c(C)c(C(C)=O)c(N2CCN(c3ccc(OC)cc3)CC2)nc1=S	inconclusive: 10 µM [inhibitor, partial curve, poor fit]
CCN(CC)c1ccc(/C=C2\SC(=O)N(C(C)C)C2=O)o1	inconclusive: 5.62 µM [inhibitor, partial curve, poor fit]
Fc1ccccc1Cn1cc(C(=S)N2CCOCC2)c2ccccc21	inconclusive: 6.31 µM [inhibitor, single point]
CCc1ccc(C(=O)COC(=O)c2cc([N+](=O)[O-])ccc2N2CCOCC2)cc1	inactive
O=C(Nc1ccc(Br)cc1)c1cc2nc(-c3ccccc3)cc(-c3ccccc3)n2n1	inactive
CCN1c2ccccc2NC2C1C(C(C)=O)C(=O)N2c1ccc(Cl)cc1 (stereo not given)	active: 22.4 µM
CCOC(=O)N1CCC(NC(=O)c2cc(COc3ccccc3SC)on2)CC1	inconclusive: 2.24 µM [inhibitor, full curve]
Fc1ccc(CCNC(=S)Nc2ccc(F)cc2)cc1	inconclusive: 35.5 µM [inhibitor, single point]
COc1ccc(CNC(=O)CN(C)S(=O)(=O)c2ccc(Br)s2)cc1	inconclusive: 5.62 µM [inhibitor, single point]
COc1cccc(-n2c(=O)c3cc(OC)c(OC)cc3n(CC(=O)Nc3ccccc3)c2=O)c1	inactive
Cc1cc(C)c(Cc2c(C)nc3c(C(=O)NCc4ccco4)cnn3c2C)c(C)c1	inconclusive: 22.4 µM [inhibitor, partial curve, poor fit]
COc1ccc(NC(=O)c2oc3ccccc3c2NC(=O)c2ccco2)cc1	inconclusive: 6.31 µM [inhibitor, single point]
COc1ccc(NC(=O)C2CCCN2C(=O)NC2CCCCC2)c(OC)c1 (stereo not given)	inconclusive: 6.31 µM [inhibitor, single point]
Fc1cccc(NC(=S)NCc2ccccn2)c1	inconclusive: 25.1 µM [inhibitor, single point]

Part of the list above, bar-delimited.
SMILES | Potency
O=C(CN1CCCCCCC1)N/N=C/c1ccccc1F | inconclusive: 35.5 µM [inhibitor, partial curve, poor fit]
O=C(NNc1ccc([N+](=O)[O-])cc1)c1ccccc1Cl | inactive

Further entries.

SMILES	Potency
CC(=O)Nc1ccc(NC(=O)CNC(=O)c2sc3ccccc3c2Cl)cc1	inconclusive: 35.5 µM [inhibitor, single point]
COCCNC(=O)CSc1nc(N)c(NC(=O)c2ccccc2F)c(=O)[nH]1	inconclusive: 35.5 µM [inhibitor, single point]
COc1ccccc1Oc1ccc2c(c1)C(=O)N(CC1CCCO1)C2=O (stereo not given)	inconclusive: 11.2 µM [inhibitor, partial curve, poor fit]
NC(=O)C1CCCN(CCc2ccccc2)C1 (stereo not given)	inactive
COc1cc(/C=C(\C#N)c2nc3ccccc3[nH]2)ccc1O	active: 12.6 µM
O=C(c1ccccc1)c1ccc2nc(N3CCN(c4ccccc4)CC3)c3nncn3c2c1	inconclusive: 25.1 µM [inhibitor, single point]
O=S(=O)(c1ccccc1)c1ccc(NCc2ccco2)cc1	inactive
Cn1c(SCC(=O)NCc2ccccc2)ncc(C(=O)Nc2ccccc2)c1=O	inconclusive: 20 µM [inhibitor, partial curve, poor fit]
O=C1/C(=C/c2ccc(N3CCCC3)cc2)NC(=S)N1C1CC1	active: 11.2 µM
CCOC(=O)c1cccc(NC(=S)NC(=O)c2cccnc2)c1	inconclusive: 22.4 µM [inhibitor, single point]
C/C(=N\NC(=O)c1ccn(C)n1)c1ccco1	inconclusive: 8.91 µM [inhibitor, partial curve]
CC(=O)N1CCN(C2=NC(=O)/C(=C/c3ccc(OS(=O)(=O)c4ccccc4)cc3)S2)CC1	inactive
Oc1ccc2ccc3cccc[n+]3c2c1	inconclusive: 3.55 µM [inhibitor, full curve, poor fit]
Cc1cccc(Cl)c1NC(=S)NN	inconclusive: 2.51 µM [inhibitor, partial curve, poor fit]
Cc1cc(C)n(NC(=S)NC2CCCC2)c(=O)c1C#N	inactive
C=CCn1c(=O)/c(=C/c2cc(OC)c(OC)c(OC)c2)s/c1=C(/C#N)c1nc2ccccc2n1C	active: 22.4 µM
Nc1nc(=S)ss1	inconclusive: 2.82 µM [inhibitor, full curve, poor fit]
CCn1c(SCc2cccc(Br)c2)nnc1-c1nonc1NC(C)=O	inactive
COc1ccc(CC(=O)Nc2ccc(C(=O)NC(C)(C)C)cc2)cc1	inconclusive: 4.47 µM [inhibitor, single point]
CC(=O)Oc1ccc(N2C(=O)C3C4C=CC(C5CC45)C3C2=O)cc1[N+](=O)[O-] (stereo not given)	inactive
CSc1cccc(NC(=O)Cn2c(=O)n(Cc3ccccc3)c(=O)c3sc4ccccc4c32)c1	inactive
Cc1ccc(NC(=S)N=Nc2c(O)n(C)c3ccc(S(=O)(=O)N4CCOCC4)cc23)cc1	inconclusive: 0.631 µM [inhibitor, full curve, poor fit]

A stretch taken from the entries so far, for reference:
SMILES	Potency
Fc1cccc(NC(=S)NCc2ccccn2)c1	inconclusive: 25.1 µM [inhibitor, single point]
CC(=O)Nc1ccc(NC(=O)CNC(=O)c2sc3ccccc3c2Cl)cc1	inconclusive: 35.5 µM [inhibitor, single point]
